# Data as given in PubChem BioAssay AID1259415 (National Center for Advancing Translational Sciences (NCATS), 2018).
# Out of some 410,000 compounds screened, about 18,000 (4.4%) were called active. Inconclusive results, whose numbers are uncertain, are shown with a selection of clear calls. Cut-off read from the data, not from the text of the source: active = activity change below about -60%; inconclusive = no clear call, values can overlap the other calls; inactive = above about -39%.
# Assay: qHTS Assay for inhibitors of the human cytomegalovirus (HCMV)
# Settings: HFF cells, HCMV-luciferase reporter, 72 h; at 57.5 µM; stronger effect = lower value
# Procedure, shortened: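 Two compound doses tested in HFFs infected with HCMV-luciferase, MOI 1 PFU/cell, 72 h at 37C. Lysate luminescence read with OneGlo; data normalized against buffer-only and 10uM Salinomycin inhibitor controls.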
# % is set by controls: 0 for no effect and ±100 for the full control effect.
row,Structure (SMILES),"activity change, negative = inhibition"
1,COc1ccc(CN2C(=O)C(NC(=O)c3ccccc3C)(C(F)(F)F)N=C2c2ccccc2)cc1 (stereo unspecified),active: -103%
2,CCN1CCN(c2cc(C)c3cc(NC(=S)N4CC(C)CC(C)C4)ccc3n2)CC1 (stereo unspecified),inconclusive: 0%
3,COc1nnc(-c2ccc(N3CCOCC3)c(NC(=O)c3ccco3)c2)c2ccccc12,inconclusive: -50%
4,C/C(N)=C(/C#N)C(=O)COC(=O)Cc1coc2ccc3ccccc3c12,active: -68.3%
5,COc1ccc2c(c1)-c1nc(NC(=O)c3ccc(Cl)cc3)sc1CC2,inconclusive: -44.7%
6,CCOC(=O)C1=C(C)NC(SCC(=O)Nc2nc(C)cs2)=C(C#N)C1c1cccs1 (stereo unspecified),inactive: -39.7%
7,CC(=O)C[C@H]1c2cc(C(F)(F)F)ccc2S(=O)(=O)N1c1ccc(N(C)C)cc1,inactive: -1.1%
8,CC1CCN(Cc2cc(=O)oc3cc(O)c(Cl)cc23)CC1,inconclusive: -51.2%
9,Cc1cccn2c(=O)cc(COc3cccc(NC(=O)c4ccccc4F)c3)nc12,active: -90.9%
10,O=C(COc1ccc(C(=S)N2CCCC2)cc1)Nc1ccc(F)cc1,inconclusive: -41%
11,Cc1ccc(S(=O)(=O)c2c(N)n(/N=C/c3ccco3)c3nc4ccccc4nc23)cc1C,inconclusive: -41.2%
12,Cn1c(-c2ccc(Cl)nc2)nc2ccccc21,inactive: 37.6%
13,O=C(O)c1cn(-c2ccccc2)nc1C(=O)O,inactive: -23.9%
14,CC(C)c1nc(N2CCOCC2)c(C#N)c2c1CCCC2,inconclusive: -43.8%
15,Cc1sc2ncnc(N3CCC(C(=O)Nc4sc5c(c4C(N)=O)CCC(C)C5)CC3)c2c1C (stereo unspecified),inconclusive: -40.9%
16,CC(C)CCNC(=O)CSCc1cnn(-c2ccccc2)c1-n1cccc1,inconclusive: -42.7%
17,CC(C)CN(C(=O)CSc1nnc(-c2cccs2)n1N)c1c(N)n(Cc2ccccc2)c(=O)[nH]c1=O,inactive: -6.69%
18,Cc1ccc(-n2c(=O)c3ccc(C(=O)NCc4ccco4)cc3n(Cc3cccc(Cl)c3)c2=O)cc1,inactive: 5.79%
19,Cc1nnc(N2CCN(C(=O)Nc3cccc(C(F)(F)F)c3)CC2)c2nn(-c3ccccc3)c(C)c12,inconclusive: -42.4%
20,COc1cn(-c2ccccc2)nc1C(=O)NCc1ccc(C)cc1,inconclusive: -41.2%
21,O=c1oc2ccccc2c(Cl)c1CN1CCCCC1,active: -63.6%
22,On1ccccc1=S,active: -98.9%

row,Structure (SMILES),"activity change, negative = inhibition"
1,CC(C)COP(=O)(OCC(C)C)C(Nc1ccccc1)c1ccccc1 (stereo unspecified),inactive: 35.6%
2,COC(CNC(=O)CSCc1nc(-c2ccc(SC)cc2)oc1C)OC,inconclusive: -48.9%
3,O=Cc1cn(Cc2ccccc2)nc1-c1cccnc1,inconclusive: -52.4%
4,O=C(c1cc([N+](=O)[O-])ccc1Cl)N1c2ccccc2Sc2ccccc21,inconclusive: -41.6%
5,CC(=O)c1cc2c(cc1NC(=O)CN1CCCCCC1)OCO2,inconclusive: -52%
6,O=C(Nc1ccc(S(=O)(=O)NCc2cccnc2)cc1)c1ccco1,inconclusive: -59.4%
7,COc1ccc2oc(=O)cc(CN3CCN(c4ccccc4F)CC3)c2c1,inconclusive: -40%
8,Cc1ccc(C(=O)N2CCCC(C(=O)Nc3cccc(-c4ccc(F)cc4)c3)C2)cn1 (stereo unspecified),inconclusive: -43.2%
9,Cn1c(NC(=O)c2ccccc2Br)cc(=O)n(C)c1=O,inconclusive: -49.9%
10,COc1cc2c(cc1OC)n(CC(=O)c1ccc(F)cc1)c(=O)n1nc(CCn3nc(C)cc3C)nc21,inconclusive: -54.4%
11,Cc1cc(C(=O)COc2cccc([N+](=O)[O-])c2)c(C)n1C1CC1,inconclusive: -46.8%
12,O=C(C1CC1)N1CCN=C1SCc1cccc(F)c1,inconclusive: -48.2%
13,O=C(c1ccc2c(c1)ncn2-c1ccc(F)cc1F)N1CCC2(CC1)OCCO2,inconclusive: -47.7%
14,O=C(CSc1nc2c([nH]c3ccccc32)c(=O)n1-c1ccccc1)N1CCCC1,inactive: 3.07%
15,CC(NC(=O)CCc1nnc(-c2ccc(-c3ccccc3)cc2)o1)c1nccs1 (stereo unspecified),inconclusive: -47.4%
16,CCOc1ccc(-n2c(-c3ccc(OC)cc3)c[n+]3c2CCCCC3)cc1,active: -98.6%
17,Cc1cc(N2CCN(C)CC2)nc2ccc(NC(=S)N3CCN(c4ccc(Cl)cc4)CC3)cc12,inconclusive: -47.8%
18,NC(N)=Nc1ccc2[nH]c3c(c2c1)C[C@@]1(O)[C@H]2Cc4ccc(O)c5c4[C@@]1(CCN2CC1CC1)C3O5 (stereo partly specified),inactive: -20.4%
19,CCOC(=O)c1ccccc1NC(=O)CSc1nnnn1C,inactive: -17.6%
20,COc1ccc(CNc2cc(C)nc3ncnn23)c(OC)c1,active: -81.4%
21,CCOc1ccccc1C(=O)Nc1ccc(S(=O)(=O)N2CCCCC2c2cccnc2)cc1 (stereo unspecified),inactive: -33.6%
22,CC(OC(=O)C1CCN(S(=O)(=O)c2ccc(C(C)(C)C)cc2)CC1)C(=O)N(C)C1CCCCC1 (stereo unspecified),inconclusive: -41.6%

row,Structure (SMILES),"activity change, negative = inhibition"
1,Cc1nc(SCC(=O)c2ccccc2)c(C#N)c(-c2ccco2)c1C(=O)NCc1ccco1,inconclusive: -59.5%
2,CCn1c(SCC(=O)N2CCCc3ccccc32)nnc1-c1ccco1,inconclusive: -48%
3,Cc1ccc(-c2csnn2)cc1,inactive: -15.2%
4,C=CC[N+](C)(C)CCN1C(=O)C2C(c3ccccc3)C=CC(c3ccccc3)C2C1=O (stereo unspecified),inconclusive: -45.5%
5,O=C(Cc1cccc2ccccc12)Nc1ccccc1C(=O)O,inconclusive: -42.3%
6,Cc1ccccc1-c1cc(=O)c2ccccc2o1,inconclusive: -44.1%
7,CC(C)NC(=O)c1csc(C(O)c2cccc(N(C)C)c2)n1 (stereo unspecified),active: -74.5%
8,CCOc1ccc(S(=O)(=O)NCc2ccncc2)cc1,active: -95.9%
9,CC(C)(C)NC(=S)N1CCn2cccc2C1c1cccnc1 (stereo unspecified),inconclusive: -52.7%
10,O=C(c1ccc(F)cc1F)N1CCCC(c2nc(-c3cccs3)no2)C1 (stereo unspecified),inconclusive: -40.2%
11,Cc1nn(-c2ccc(F)cc2)c(Cl)c1C(=O)OC(C)C(=O)N(C)C1CCCCC1 (stereo unspecified),inconclusive: -49.4%
12,Cc1ccc(-n2nnnc2-c2cnc3ccc(Cl)cc3c2-c2ccccc2)cc1,inconclusive: -47.8%
13,O=C(CCC(=O)N1CCOc2ccc(Cl)cc21)NCCCN1CCC(Cc2ccccc2)CC1,active: -74.7%
14,Cc1cccc(/C=C2\Sc3ccc(C(=O)N4CCC(C)CC4)cc3N(C)C2=O)c1,inconclusive: -40.6%
15,CCC(C)C(=O)OC1CCC=C2C=CC(C)C(CCC3CC(O)CC(=O)O3)C21 (stereo unspecified),active: -97.1%
16,CNCCCOc1cccc(Oc2ccccc2)c1,inconclusive: -52.1%
17,CCCCCCn1c(=O)n2n(c1=O)[C@@H]1CN(S(=O)(=O)c3ccc(C)cc3)C[C@]1(O)[C@@H](OC(=O)NCc1ccccc1F)C2,inactive: 12.6%
18,CCOC(=O)C1=C(C)N(C)C(=S)NC1c1cccc(Cl)c1Cl (stereo unspecified),inconclusive: -45.4%
19,COc1ccccc1Cn1c(C)nnc1-c1cnn(C)c1N,inconclusive: -42.8%
20,Cc1cc(C(=O)COC(=O)c2ccc(O)cc2O)c(C)n1-c1ccc(OC(F)F)cc1,active: -63.4%
21,CCN(c1ccc(OC)cc1)S(=O)(=O)c1nnc(NC(=O)CC(C)C)s1,inconclusive: -46.8%
22,Cc1cc(C(=O)Nc2ccccc2)nn1C(C)(C)C,inactive: 60.8%

row,Structure (SMILES),"activity change, negative = inhibition"
1,NS(=O)(=O)c1ccc(NC(=S)NCc2ccc(F)cc2)cc1,inconclusive: -58.1%
2,Cc1ccc(OCCn2cccc2/C=C2/C(=O)NC(=O)N(Cc3ccco3)C2=O)cc1,inconclusive: -51.5%
3,N#Cc1ccccc1CSc1ccc(-c2nc3ccccc3[nH]2)cn1,inactive: -23.1%
4,Nc1nc(SCC(=O)Nc2ccc(OCc3ccccc3)cc2)n[nH]1,inactive: -8.6%
5,COc1ccc(OC)c(-c2noc(CSc3nnc(Cc4ccccc4)n3-c3cccc(C)c3)n2)c1,inactive: -7.16%
6,COc1ccc(NC(=O)CN2CCC3(O)CCCCC3C2c2ccccc2OC)cc1 (stereo unspecified),inconclusive: -41.6%
7,CC1=C(C(=O)N(C)C)CC(CC(=O)NC2CCCCC2)C(=O)N1Cc1ccccc1 (stereo unspecified),inactive: -10.3%
8,O=C(CCC1CCCC1)N=C1SC2CS(=O)(=O)CC2N1c1ccccc1F (stereo unspecified),inconclusive: -42.5%
9,CCC(C)(C)n1nnnc1CN1CCN(c2nc3cc(OC)ccc3cc2C#N)CC1,inconclusive: -45.9%
10,COc1ccc(/C=C2\SC(N3CCCCC3)=NC2=O)cc1OC,inactive: -34.1%
11,CSc1ccc(S(=O)(=O)N2CCC(C(=O)Nc3ccccc3C(F)(F)F)CC2)cc1,inconclusive: -54.1%
12,CC1=NN(c2ccc(C)cc2)C(=O)/C1=C/c1ccc(-c2cc([N+](=O)[O-])ccc2O)o1,inconclusive: -52.2%
13,CCNc1nc(NCc2ccccc2)nc(SCC(N)=O)n1,inconclusive: -51.2%
14,CCCC1(c2ccccc2)NC(=O)N(CC(=O)NCc2ccc(OC)cc2)C1=O (stereo unspecified),inconclusive: -41%
15,CCN1CCN(CC(=O)N2CCCC(C(=O)c3ccc(Oc4ccccc4)cc3)C2)CC1 (stereo unspecified),inactive: 46.1%
16,Nc1ccc(Sc2ccc([N+](=O)[O-])cc2)cc1,inconclusive: -57%
17,CCOC(=O)c1nnn2c1nc(N1CCOCC1)c1ccccc12,inactive: 17.5%
18,CCCn1c(=O)c2sccc2n2c(CCCC(=O)Nc3ccc(C)c(F)c3)nnc12,inconclusive: -43%
19,CCN(C(=O)CN1C(=O)S/C(=C\c2cccc(OC)c2)C1=O)C1CCS(=O)(=O)C1 (stereo unspecified),inconclusive: -50.1%
20,COc1ccccc1NC(=S)NC(=O)C1CC1,inconclusive: -59.1%

# Five entries from above in a different format.
row	Structure (SMILES)	activity change, negative = inhibition
5	COc1ccc(OC)c(-c2noc(CSc3nnc(Cc4ccccc4)n3-c3cccc(C)c3)n2)c1	inactive: -7.16%
6	COc1ccc(NC(=O)CN2CCC3(O)CCCCC3C2c2ccccc2OC)cc1 (stereo unspecified)	inconclusive: -41.6%
7	CC1=C(C(=O)N(C)C)CC(CC(=O)NC2CCCCC2)C(=O)N1Cc1ccccc1 (stereo unspecified)	inactive: -10.3%
8	O=C(CCC1CCCC1)N=C1SC2CS(=O)(=O)CC2N1c1ccccc1F (stereo unspecified)	inconclusive: -42.5%
9	CCC(C)(C)n1nnnc1CN1CCN(c2nc3cc(OC)ccc3cc2C#N)CC1	inconclusive: -45.9%
